In PubChem BioAssay AID2685 (National Center for Advancing Translational Sciences (NCATS), 2010):
The list shows a part of the results. The main result of the screen is listed elsewhere. These columns were measured beside it and carry no call. Compounds called inactive in the main read-out are mostly missing here. Words in brackets tell the shape of the fitted curve; partial curves, single points and poor fits give uncertain potencies.

Experiment: qHTS Assay for Lipid Storage Modulators in Drosophila S3 Cells;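 for cell number change: cells counted by Cell Tracker Red CMTPX staining in the red channel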
Conditions: BODIPY lipid droplet fluorescence, 18-24 h; for cell number change: measured here: cell count max response, cells fed with added oleic acid
How it was run: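 Drosophila S3 cells got compounds at several concentrations plus oleic acid (400 uM solution). Laser-scanning cytometry with 488 nm excitation read lipid droplets at 500-530 nm and cells at 575-640 nm. Percent activity was relative to 20 uM Triacsin C.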

[1] = measured here: cell number channel AC50, cells fed with added oleic acid
[2] = measured here: lipid fluorescence (Fed channel) AC50, cells fed with added oleic acid

| SMILES | cell number change [%] | AC50 [1] | AC50 [2] |
| --- | --- | --- | --- |
| CCOC(=O)N1CCC(N2Cc3cccc(C(=O)O)c3C2=O)CC1 | -22.7 | 0.82 µM [falling, full curve, poor fit] | 4.61 µM [falling, single point] |
| Cc1ccc(-c2cc(C(=O)Nc3ccc(S(=O)(=O)Nc4onc(C)c4C)cc3)c3ccccc3n2)cc1 |  | 5.17 µM [rising, single point] | 6.51 µM [rising, partial curve] |
| COC(=O)C1C(c2ccc(N(C)C)cc2)C(C(=O)OC)S(=O)(=O)CS1(=O)=O (stereo not drawn) | -27.2 |  |  |
| COc1ccc2cc(C3c4cc(OC)c(OC)cc4CCN3C(=O)c3ccco3)c(=O)[nH]c2c1 (stereo not drawn) | -15.4 |  | 0.116 µM [falling, partial curve, poor fit] |
| CC1CCC2(CC1)NC(=S)N(c1ccccc1)N2 (stereo not drawn) | 9.61 |  | 0.164 µM [falling, full curve, poor fit] |
| CC(C)n1c(CN(C)Cc2ccccc2)nc2c1c(=O)n(C)c(=O)n2C | -53.9 | 4.11 µM [falling, partial curve] | 4.11 µM [falling, full curve, poor fit] |
| CCc1nc2scc(-c3ccc(C)cc3)c2c(=O)n1N | 17.1 |  | 0.146 µM [rising, full curve, poor fit] |
| CCOC(=O)/C=C/C(=O)N1CCN(C(=O)/C=C/C(=O)OCC)CC1 | -20 |  | 4.11 µM [falling, full curve, poor fit] |
| O=C(Cc1ccccc1)Nc1ccc(NC(=O)c2ccccc2)nc1 | 83.3 | 25.9 µM [rising, partial curve] |  |
| COc1cc(C2=NOC(C(=O)NC3CCCCC3)C2)cc(OC)c1OC (stereo not drawn) | 16.7 |  |  |
| CCN(CC)C(=O)c1sc(NC(=O)c2ccncc2)c(C(=O)OC)c1C |  | 0.411 µM [rising, partial curve, poor fit] | 0.461 µM [rising, full curve] |
| CCOc1ccc(C)cc1S(=O)(=O)NC1CCCCCC1 | 26.9 |  | 1.26 µM [rising, full curve] |
| CCN(CC)c1ccc(/C=N/NC(=O)c2nnn(-c3nonc3N)c2-c2ccc(C)cc2)cc1 | -0.295 |  | 0.58 µM [rising, full curve] |
| C/C(=N\NC(=O)c1cccc([N+](=O)[O-])c1)c1ccco1 | 1.05 |  | 18.4 µM [rising, single point] |
| COc1ccc(-n2c(Cc3cccn3C)nnc2SCC(=O)Nc2cccc(OC)c2)cc1 | 3.27 |  | 7.31 µM [rising, partial curve] |
| Cc1ccc(C(=O)Nc2ccc(N3CCN(C(=O)c4ccco4)CC3)cc2)c(Cl)c1 | -9.21 |  | 3.55 µM [rising, single point] |
| CC(C)(C)c1ccc(C(=O)Nc2cnccn2)cc1 | 5.78 |  |  |
| C#CCOc1ccc2ccccc2c1/C=C(/C#N)c1ccc(C(=O)O)cc1 | 13.8 |  | 1.64 µM [falling, single point] |
| Cc1cc(C)c(NC(=O)C(C)(C)C)c(Cl)c1 | -30 | 11.6 µM [falling, single point] | 29.1 µM [falling, single point] |
| Cn1c(SCC(=O)Nc2cccnc2)nnc1-c1ccccc1F |  | 6.51 µM [falling, single point] |  |

| SMILES | cell number change [%] | AC50 [1] | AC50 [2] |
| --- | --- | --- | --- |
| CCN1CCN=C1Nc1ccccc1 | -36.7 | 20.6 µM [falling, single point] | 29.1 µM [falling, single point] |
| Cc1cccc(C(=O)OC(C)C(=O)NC(=O)NC2CCCCC2)c1O (stereo not drawn) | -24.3 |  |  |
| Cc1ccc(C)c(Nc2cc(C)nc3ncnn23)c1 | 1.47 |  |  |
| CCOC(=O)c1cnc2c(C#N)c(C)nn2c1-c1ccccc1 | -6.67 |  | 20.6 µM [rising, single point] |
| CCOC(=O)C1C(c2ccccc2)N(C)OC1(O)C(F)(F)F (stereo not drawn) | -5.93 |  |  |
| CC(=O)Nc1cc(N=Cc2ccc(O)cc2O)c(Cl)cc1Cl | -12.4 |  | 29.1 µM [rising, single point] |
| CC(Oc1ccc(Cl)cc1Cl)c1nc(-c2ccc(NC(=O)c3ccco3)cc2)no1 (stereo not drawn) |  | 2.06 µM [rising, partial curve] |  |
| Cc1c(C(=O)NCc2ccc3c(c2)OCO3)sc2nc(-c3ccc(F)cc3)cn12 | 42 | 0.13 µM [rising, full curve, poor fit] | 0.13 µM [rising, full curve, poor fit] |
| CCn1cc(/C=N/NC(=O)COc2cccc3cccnc23)c2ccccc21 | -65.3 | 32.6 µM [falling, single point] | 2.31 µM [rising, partial curve, poor fit] |
| CC(=O)n1cc([C@H]2C=C(C(=O)N3CCN(Cc4ccccc4)CC3)O[C@@H](OCc3ccc(CO)cc3)C2)c2ccccc21 | -20.9 |  |  |
| COc1cccc(C(=O)NCC(c2ccc3c(c2)OCO3)N2CCN(c3ccc(F)cc3)CC2)c1 (stereo not drawn) |  | 0.13 µM [rising, full curve, poor fit] | 0.13 µM [rising, full curve, poor fit] |
| Fc1ccccc1C1c2cccn2CCN1C(=S)Nc1ccc(Br)cc1 (stereo not drawn) | 39.3 | 0.13 µM [rising, full curve] | 29.1 µM [rising, single point] |
| Cc1c(C(=O)NCc2cccs2)oc2ccc(S(=O)(=O)N3CCOCC3)cc12 | 36.4 | 13 µM [rising, partial curve] | 0.651 µM [rising, full curve, poor fit] |
| CCOC(=O)c1cnc(Nc2ccc(OCC)cc2)nc1C | 4.38 |  |  |
| O=C(NCCc1ccccc1)C1CCCN1S(=O)(=O)c1cccc2nsnc12 (stereo not drawn) | -10.8 |  |  |
| O=C(CS(=O)(=O)c1cn(CC(=O)N2CCOCC2)c2ccccc12)NCc1ccc(F)cc1 | -17.3 |  | 4.47 µM [falling, full curve, poor fit] |
| CN(CC(=O)Nc1ccc(F)cc1)C(=O)c1ccc(OCc2ccccc2)cc1 | 194 | 18.4 µM [rising, single point] |  |
| O=C(Nc1ccc(C(=O)N2CCOCC2)cc1)Nc1ccc(Cl)cc1Cl | -17.3 | 5.8 µM [falling, single point] |  |
| COc1ccccc1NC(=O)N1CCCC1C(=O)Nc1nnc(C(C)C)s1 (stereo not drawn) | -21.4 | 0.517 µM [falling, full curve, poor fit] | 6.51 µM [falling, single point] |
| Cc1ccc(C(=O)Oc2oc(-c3ccco3)nc2C=Nc2ccc(Cl)cc2)cc1 | 17.9 |  | 18.4 µM [rising, single point] |

| SMILES | cell number change [%] | AC50 [1] | AC50 [2] |
| --- | --- | --- | --- |
| OC(COCc1cccs1)CN1CCN(c2cccc(Cl)c2)CC1 (stereo not drawn) | -36.5 | 29.1 µM [falling, single point] |  |
| O=C(O)c1ccccc1C(=O)Nc1ccc(S(=O)(=O)Nc2ccc(F)cc2)cc1 |  |  | 29.1 µM [rising, single point] |
| O=C(c1ccc(Cl)c(S(=O)(=O)N2CCOCC2)c1)N1CCCC1 | -1.32 |  | 7.08 µM [rising, partial curve, poor fit] |
| COc1cc(NC(=O)CSc2ncnc3sc4c(c23)CCCC4)c(C(=O)O)cc1OC | -5.65 |  | 6.51 µM [rising, single point] |
| O=C(NCc1ccco1)C1CCCCC1 | 5.97 | 6.51 µM [falling, partial curve, poor fit] | 0.0058 µM [falling, full curve, poor fit] |
| Cc1cc(C(=O)Nc2ccc(C)c(S(=O)(=O)N3CCOCC3)c2)c2ccccc2n1 | -7.65 |  |  |
| CC(OC(=O)CC1CCCC1)C(=O)Nc1ccc(Cl)cn1 (stereo not drawn) | -22.9 |  | 0.731 µM [falling, partial curve] |
| C/C(=N/OC(=O)c1c(-c2c(Cl)cccc2Cl)noc1C)c1cnccn1 | 10.9 |  | 0.13 µM [rising, full curve, poor fit] |
| CCOC(=O)N1CCC(=C(C#N)C(=O)Nc2cc(OC)ccc2OC)CC1 | -15.8 |  | 0.146 µM [falling, full curve, poor fit] |
| Brc1cccc(-c2nnco2)c1 |  | 0.82 µM [falling, single point] |  |
| CC(C)(C)c1ccc(C(=O)NCC(=O)NCc2ccccn2)cc1 | -19.4 |  | 0.184 µM [falling, full curve, poor fit] |
| CCC(C)Sc1ccc([C@H]2N[C@@](CC(C)C)(C(=O)OC)[C@H]3C(=O)N(CC)C(=O)[C@@H]23)cc1 (stereo partly drawn) | -37.4 | 18.4 µM [falling, partial curve, poor fit] | 13 µM [falling, partial curve, poor fit] |
| Cc1cc(C)nc(NC(=O)c2cccc([N+](=O)[O-])c2C)n1 | 49.5 | 32.6 µM [rising, partial curve, poor fit] | 29.1 µM [rising, single point] |
| CCOC(=O)C1C(c2ccc(O)cc2)NC(=O)NC1(O)C(F)(F)F (stereo not drawn) | -12.9 |  |  |
| CC(=O)Nc1ccc(S(=O)(=O)Nc2ccc3c(c2)OCO3)cc1 | 2.63 |  | 35.5 µM [falling, single point] |
| CCc1ccccc1N(CC(=O)NC1CCCCC1)C(=O)CCC(=O)Nc1ccccn1 |  |  | 0.731 µM [falling, full curve, poor fit] |
| CN(Cc1cccs1)C(=O)/C=C/c1ccccc1[N+](=O)[O-] | 56 | 8.2 µM [rising, partial curve] | 0.517 µM [rising, full curve] |
| CCCCC(C(=O)OCC(=O)c1ccc(OC)cc1)N1C(=O)c2ccccc2C1=O (stereo not drawn) | -21.2 |  | 16.4 µM [falling, single point] |

A portion from the list above, as a working copy:

| SMILES | cell number change [%] | AC50 [1] | AC50 [2] |
| --- | --- | --- | --- |
| Fc1ccccc1C1c2cccn2CCN1C(=S)Nc1ccc(Br)cc1 (stereo not drawn) | 39.3 | 0.13 µM [rising, full curve] | 29.1 µM [rising, single point] |
| Cc1c(C(=O)NCc2cccs2)oc2ccc(S(=O)(=O)N3CCOCC3)cc12 | 36.4 | 13 µM [rising, partial curve] | 0.651 µM [rising, full curve, poor fit] |
